PubChem BioAssay AID1259292 | Sanger Institute | 2017

Aim: 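Kinase genes whose knock-down synergises with trametinib, cetuximab or BYL719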 (follow-up of hits)
System: human colorectal cancer RCM1 cells
Reagents: single siRNA against human genes
Treatment: anchor drugs BYL719 at 1 µM, cetuximab at 5 µg/ml or trametinib at 10 nM, or DMSO vehicle; exposure time not given
Read-out: 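Replicate-averaged viability as a fraction of non-targeting pool 2 wells, under DMSO, BYL719 1 µM, cetuximab 5 µg/ml or trametinib 10 nM (time unstated), plus a synergy score for each drug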
Reading the numbers: synergy score with trametinib and synergy score with cetuximab and synergy score with BYL719: higher = stronger combined killing beyond expected (synthetic lethal)
Active means: 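a gene counts as synergistic when its synergy score is over 0.10 with at least one of the three drugs; otherwise no synergy with any drug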
Meaning of the calls: active = synergy with at least one anchor drug; inactive = no synergy with any anchor drug
This is one part, drawn at random, of 160 reagents tested. Of all reagents, 64 (40%) got an active call. 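Four separate siRNAs per gene; a call can rest on any single drug, so look at each drug's score.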 Entries without a mark were called inactive. Reagents against one gene are numbered here. Further read-outs or replicates are left out here. No sequences are given here. Not given: the amount of reagent, the time to read-out.

After knock-down of GUCY2D #1 the results were synergy score with trametinib -0.109; synergy score with cetuximab -0.0658; synergy score with BYL719 = -0.162. After knock-down of GUCY2D #2 the results were synergy score with trametinib 0.175 (active); synergy score with cetuximab -0.0312; synergy score with BYL719 = -0.00879. Knock-down of GUCY2D #3 gave: synergy score with trametinib -0.0538; synergy score with cetuximab -0.106; synergy score with BYL719 = -0.215. After knock-down of GUCY2D #4, the record shows synergy score with trametinib -0.0575; synergy score with cetuximab -0.0686; synergy score with BYL719 = -0.162. After knock-down of PAK1 #1, the screen gave synergy score with trametinib 0.119 (active); synergy score with cetuximab -0.0908; synergy score with BYL719 = -0.0244. For PAK1 #2, the entry reads synergy score with trametinib 0.153 (active); synergy score with cetuximab 0.13; synergy score with BYL719 = 0.0974.

For PAK1 #3 the deposit lists synergy score with trametinib 0.188 (active); synergy score with cetuximab -0.0544; synergy score with BYL719 = 0.0435. For PAK1 #4 the deposit lists synergy score with trametinib -0.115; synergy score with cetuximab -0.0725; synergy score with BYL719 = -0.13. With knock-down of BMPR2 #1 the results were synergy score with trametinib -0.109; synergy score with cetuximab -0.0686; synergy score with BYL719 = -0.162. After knock-down of BMPR2 #2, the record shows synergy score with trametinib -0.0324; synergy score with cetuximab -0.0878; synergy score with BYL719 = -0.212. Against BMPR2 #3, the values are synergy score with trametinib -0.0861; synergy score with cetuximab -0.0686; synergy score with BYL719 = -0.162. With knock-down of BMPR2 #4 the results were synergy score with trametinib -0.296; synergy score with cetuximab -0.0686; synergy score with BYL719 = -0.162.

Depletion of PLK1 #1 resulted in: synergy score with trametinib 0.0864 (active); synergy score with cetuximab 0.192; synergy score with BYL719 = 0.0743. Depletion of PLK1 #2 resulted in: synergy score with trametinib -0.00898 (active); synergy score with cetuximab 0.199; synergy score with BYL719 = 0.0149. Silencing of PLK1 #3 resulted in: synergy score with trametinib -0.112; synergy score with cetuximab -0.0761; synergy score with BYL719 = -0.101. With knock-down of PLK1 #4, the record shows synergy score with trametinib -0.0556; synergy score with cetuximab -0.0238; synergy score with BYL719 = -0.111. Against PRAG1 #1, the values are synergy score with trametinib 0.208 (active); synergy score with cetuximab 0.175; synergy score with BYL719 = 0.164. Depletion of PRAG1 #2 came out at: synergy score with trametinib 0.182 (active); synergy score with cetuximab -0.0922; synergy score with BYL719 = -0.223.

After knock-down of PRAG1 #3 the results were synergy score with trametinib -0.272; synergy score with cetuximab -0.0686; synergy score with BYL719 = -0.15. For PRAG1 #4, the values are synergy score with trametinib -0.249; synergy score with cetuximab -0.0686; synergy score with BYL719 = 0.0999.
